Measured values published in publication doi:10.1101/2025.10.23.684218.
Results are given in words; binding and its absence hold for the method and conditions named. In cells and extracts the contact can be indirect. Some results given as binding are weak or reduced against the parent protein; the word gives no strength.

Chains of the proteins cited; added tags and fusions are not shown. Residues count along the entry.
UniProt Q9UBN7: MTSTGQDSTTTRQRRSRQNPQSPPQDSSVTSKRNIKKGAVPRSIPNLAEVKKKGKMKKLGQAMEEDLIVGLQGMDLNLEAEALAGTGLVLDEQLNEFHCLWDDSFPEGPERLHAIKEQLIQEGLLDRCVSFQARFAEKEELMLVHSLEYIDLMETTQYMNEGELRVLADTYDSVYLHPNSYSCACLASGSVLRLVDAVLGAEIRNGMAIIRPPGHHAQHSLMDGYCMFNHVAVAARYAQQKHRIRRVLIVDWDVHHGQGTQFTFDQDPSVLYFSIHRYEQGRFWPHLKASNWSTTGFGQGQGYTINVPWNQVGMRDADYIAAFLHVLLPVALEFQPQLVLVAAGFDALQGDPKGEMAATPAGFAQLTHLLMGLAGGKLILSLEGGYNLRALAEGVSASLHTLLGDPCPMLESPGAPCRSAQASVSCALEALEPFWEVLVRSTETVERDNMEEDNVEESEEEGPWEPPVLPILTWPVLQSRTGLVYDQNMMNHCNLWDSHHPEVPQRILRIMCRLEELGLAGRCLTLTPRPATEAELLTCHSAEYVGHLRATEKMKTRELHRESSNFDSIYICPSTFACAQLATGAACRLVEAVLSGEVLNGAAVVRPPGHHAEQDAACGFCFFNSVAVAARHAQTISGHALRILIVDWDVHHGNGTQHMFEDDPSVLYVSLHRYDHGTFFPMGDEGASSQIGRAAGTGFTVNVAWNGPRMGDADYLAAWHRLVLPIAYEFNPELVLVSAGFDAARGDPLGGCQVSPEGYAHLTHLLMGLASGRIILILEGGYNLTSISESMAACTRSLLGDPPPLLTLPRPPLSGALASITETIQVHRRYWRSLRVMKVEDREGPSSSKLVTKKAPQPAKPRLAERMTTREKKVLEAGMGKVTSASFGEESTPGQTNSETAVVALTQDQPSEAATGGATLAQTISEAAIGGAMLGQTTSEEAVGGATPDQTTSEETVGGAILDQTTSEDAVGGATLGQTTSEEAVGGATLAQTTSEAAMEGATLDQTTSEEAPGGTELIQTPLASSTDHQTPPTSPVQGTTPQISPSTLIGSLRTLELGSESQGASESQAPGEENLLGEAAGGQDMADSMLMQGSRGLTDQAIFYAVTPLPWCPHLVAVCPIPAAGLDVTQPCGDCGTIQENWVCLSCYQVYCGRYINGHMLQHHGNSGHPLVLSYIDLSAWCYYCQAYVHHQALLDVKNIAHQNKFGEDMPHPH
UniProt Q9Y5T5: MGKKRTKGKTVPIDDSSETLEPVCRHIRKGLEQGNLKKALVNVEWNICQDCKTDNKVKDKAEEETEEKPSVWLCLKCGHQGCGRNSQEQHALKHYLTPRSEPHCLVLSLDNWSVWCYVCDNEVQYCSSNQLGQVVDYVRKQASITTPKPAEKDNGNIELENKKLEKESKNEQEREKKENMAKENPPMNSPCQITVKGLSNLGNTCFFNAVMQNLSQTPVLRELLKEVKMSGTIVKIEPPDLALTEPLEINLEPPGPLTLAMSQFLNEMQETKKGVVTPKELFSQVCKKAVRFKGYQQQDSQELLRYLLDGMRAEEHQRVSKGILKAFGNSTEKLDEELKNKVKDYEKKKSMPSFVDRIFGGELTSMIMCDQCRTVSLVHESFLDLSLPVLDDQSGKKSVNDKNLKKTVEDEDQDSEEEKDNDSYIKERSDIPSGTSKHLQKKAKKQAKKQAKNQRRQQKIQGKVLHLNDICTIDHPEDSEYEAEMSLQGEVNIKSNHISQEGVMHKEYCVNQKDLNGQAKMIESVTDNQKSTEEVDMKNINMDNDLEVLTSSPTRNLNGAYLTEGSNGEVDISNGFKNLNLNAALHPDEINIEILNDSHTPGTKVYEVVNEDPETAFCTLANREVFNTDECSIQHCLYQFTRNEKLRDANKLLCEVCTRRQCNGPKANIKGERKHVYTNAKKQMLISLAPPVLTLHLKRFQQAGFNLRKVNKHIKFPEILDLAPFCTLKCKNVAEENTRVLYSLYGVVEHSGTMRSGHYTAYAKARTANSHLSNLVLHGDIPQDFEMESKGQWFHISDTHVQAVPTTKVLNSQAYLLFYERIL
UniProt P05161, residues 1-157: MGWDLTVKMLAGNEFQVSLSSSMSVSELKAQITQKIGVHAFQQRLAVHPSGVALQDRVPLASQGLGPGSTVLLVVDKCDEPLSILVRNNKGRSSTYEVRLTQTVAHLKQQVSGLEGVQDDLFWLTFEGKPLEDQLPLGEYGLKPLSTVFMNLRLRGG

What was measured:
[1] = target: HDAC6 (histone deacetylase 6), N-terminally NanoLuc-tagged (UniProt Q9UBN7); experiment: FRET or BRET
[2] = target: Ubiquitin-specific peptidase 16 (USP16), N-terminally NanoLuc-tagged (human) (UniProt Q9Y5T5); experiment: FRET or BRET

binding [1]: binds | binding [2]: binds
Substance: ISG15, N-terminally HaloTag-tagged (from UniProt P05161 1-157)
